The assay can be described thus: qHTS Assay for Modulators of Lamin A Splicing. Particulars: HeLa LMNA splicing GFP/RFP minigene ratio, 48 h. The procedure, abridged:
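Read-out is the ratio of GFP to DsRed2 object intensity, acquired by 488 nm laser-scanning cytometry on HeLa lamin A-EGFP minigene reporter cells. Compound incubation 48 hrs at 37 °C in Opti-MEM with 2% FBS; DMSO 0.5% final.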

[1] abbreviates: measured here: GFP splicing reporter channel.
Setting [2] is: measured here: RFP viability control channel.

Here are results for 15 molecules from PubChem BioAssay AID1487 (National Center for Advancing Translational Sciences (NCATS), 2009).

This is one part of the list. Further columns of the screen follow, without active or inactive calls. Most of these compounds were active or inconclusive in the main read-out, so they are no random draw. Words in brackets tell the shape of the fitted curve; partial curves, single points and poor fits give uncertain potencies.

For orientation: AC50 means the midpoint of the concentration-response curve, whichever way the signal moves. With `COc1ccc(O[C@H]2C=C[C@@H](c3ccccc3)O[C@@H]2COC(=O)CC/C(C)=N/O[C@H](C)c2cn([C@@H]3COC[C@H]3O)nn2)cc1`, the AC50 is, setting by setting: under setting [1], 14.1 µM [rising, partial curve]; under setting [2], 15.8 µM [rising, partial curve]. For the molecule `Cn1c(SCC(=O)Nc2sc3c(c2C#N)CCC3)nnc1C1COc2ccccc2O1` (stereo not given), under setting [2], the AC50 was 35.5 µM [rising, single point].

Consider `O=C(Oc1ccccc1N1C(=O)C2CCCCC2C1=O)c1ccccc1F` (stereo not given), for which the AC50 under setting [2] was 0.794 µM [rising, full curve, poor fit]. For `Cc1ccc(NNC(=O)c2c(C)noc2C)cc1Cl`, the AC50 under setting [1] is 35.5 µM [rising, single point]. Regarding `Fc1ccccc1COc1ccc(Br)cc1CNCC1CCCO1` (stereo not given), the AC50 under setting [2] is 35.5 µM [rising, single point]. `O=C(c1ccco1)N1CCCN(Cc2nc(-c3ccc4c(c3)OCO4)no2)CC1`: the half-maximal activity concentration (AC50) under setting [2] was 0.0562 µM [falling, full curve, poor fit]. On to `COc1cccc(/C=N/NC(=O)CN(CCc2ccccc2)S(=O)(=O)c2ccc(NC(C)=O)cc2)c1`, for which the AC50 under setting [2] is 14.1 µM [rising, partial curve]. With `O=C(Nc1nccs1)c1sc2cc(Cl)ccc2c1Cl`, the AC50 is, setting by setting: under setting [1], 17.8 µM [falling, single point]; under setting [2], 25.1 µM [falling, single point].

As for `O=C(CSc1nnc2c(Cl)cc(C(F)(F)F)cn12)NCc1ccc(F)cc1`, the AC50 under setting [1] was 14.1 µM [rising, single point]. Regarding `CC(=O)Nc1ccc(/C(C)=N/NC(=O)c2ccc(CN3CCOCC3)cc2)cc1`, the AC50 under setting [2] is 0.0891 µM [falling, full curve, poor fit]. Take `CCC(=O)Nc1nnc(Sc2ccc(N(C)C)cc2)s1`: the half-maximal activity concentration (AC50) under setting [1] was 0.398 µM [rising, full curve] and the AC50 under setting [2] is 0.355 µM [rising, full curve, poor fit].

For `CC(=O)c1ccccc1OCCOCCOc1ccccc1C(C)=O`, the AC50 under setting [1] is 11.2 µM [rising, partial curve] and the AC50 under setting [2] is 20 µM [rising, partial curve]. For the molecule `Cc1ccccc1N(C(=O)c1csnn1)C(C(=O)NC(C)(C)C)c1ccncc1` (stereo not given), the concentration at half-maximal activity (AC50) under setting [1] is 6.31 µM [falling, partial curve, poor fit]. With `CCOC(=O)C1=C(c2cccc(F)c2)NC(=S)NC1C` (stereo not given), the AC50 under setting [2] was 3.16 µM [falling, partial curve, poor fit].

Turning to `O=C(CN1CCCCC1)Nc1cc(Cl)ccc1Oc1ccccc1`, the AC50 is, setting by setting: under setting [1], 17.8 µM [rising, partial curve]; under setting [2], 11.2 µM [rising, partial curve].
